# Measurements published in the supplement of paper PMC10849652.
# Protein sequences, listed by entry. Tags and fused reporters are not part of them. Lines headed by an entry give the natural chain unless they say otherwise; changes in a name come on top.
# UniProt Q7Z6M1: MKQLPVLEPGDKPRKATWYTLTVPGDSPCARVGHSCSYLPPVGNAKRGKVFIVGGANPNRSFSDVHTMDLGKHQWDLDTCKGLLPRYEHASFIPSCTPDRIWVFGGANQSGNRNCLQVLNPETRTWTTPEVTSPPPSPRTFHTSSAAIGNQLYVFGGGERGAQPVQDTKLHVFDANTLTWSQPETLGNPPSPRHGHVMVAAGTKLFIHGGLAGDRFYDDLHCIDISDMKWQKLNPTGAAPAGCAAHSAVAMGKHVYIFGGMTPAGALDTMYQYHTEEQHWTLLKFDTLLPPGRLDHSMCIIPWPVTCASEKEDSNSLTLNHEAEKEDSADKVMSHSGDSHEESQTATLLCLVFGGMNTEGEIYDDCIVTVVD
# UniProt P20936: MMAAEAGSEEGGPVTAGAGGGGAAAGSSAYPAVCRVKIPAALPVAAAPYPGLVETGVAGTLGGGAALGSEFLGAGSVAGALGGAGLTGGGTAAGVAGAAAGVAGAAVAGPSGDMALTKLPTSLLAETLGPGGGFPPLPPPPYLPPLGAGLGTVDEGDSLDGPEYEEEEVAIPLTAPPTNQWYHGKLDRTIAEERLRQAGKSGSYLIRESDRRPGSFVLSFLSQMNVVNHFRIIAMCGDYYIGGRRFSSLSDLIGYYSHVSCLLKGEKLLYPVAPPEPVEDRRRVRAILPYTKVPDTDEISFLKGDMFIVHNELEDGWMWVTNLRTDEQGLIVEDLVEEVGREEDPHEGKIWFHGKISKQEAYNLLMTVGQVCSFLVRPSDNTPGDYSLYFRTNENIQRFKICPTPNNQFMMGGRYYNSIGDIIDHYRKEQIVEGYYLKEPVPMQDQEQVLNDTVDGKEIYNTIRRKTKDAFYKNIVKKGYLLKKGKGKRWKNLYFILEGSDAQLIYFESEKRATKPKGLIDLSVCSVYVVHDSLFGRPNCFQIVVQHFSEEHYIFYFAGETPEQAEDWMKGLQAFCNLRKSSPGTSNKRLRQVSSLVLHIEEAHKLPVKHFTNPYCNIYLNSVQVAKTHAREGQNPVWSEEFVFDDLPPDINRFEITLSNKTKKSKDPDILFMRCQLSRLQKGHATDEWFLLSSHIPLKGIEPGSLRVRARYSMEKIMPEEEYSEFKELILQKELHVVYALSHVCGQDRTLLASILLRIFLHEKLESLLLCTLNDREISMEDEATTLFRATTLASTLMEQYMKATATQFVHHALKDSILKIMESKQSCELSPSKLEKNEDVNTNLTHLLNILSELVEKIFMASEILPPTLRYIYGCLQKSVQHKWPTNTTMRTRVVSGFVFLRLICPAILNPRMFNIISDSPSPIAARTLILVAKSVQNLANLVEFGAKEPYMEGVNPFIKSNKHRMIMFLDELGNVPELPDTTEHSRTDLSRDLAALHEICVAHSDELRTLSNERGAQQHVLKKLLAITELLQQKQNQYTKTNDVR
# UniProt O75943: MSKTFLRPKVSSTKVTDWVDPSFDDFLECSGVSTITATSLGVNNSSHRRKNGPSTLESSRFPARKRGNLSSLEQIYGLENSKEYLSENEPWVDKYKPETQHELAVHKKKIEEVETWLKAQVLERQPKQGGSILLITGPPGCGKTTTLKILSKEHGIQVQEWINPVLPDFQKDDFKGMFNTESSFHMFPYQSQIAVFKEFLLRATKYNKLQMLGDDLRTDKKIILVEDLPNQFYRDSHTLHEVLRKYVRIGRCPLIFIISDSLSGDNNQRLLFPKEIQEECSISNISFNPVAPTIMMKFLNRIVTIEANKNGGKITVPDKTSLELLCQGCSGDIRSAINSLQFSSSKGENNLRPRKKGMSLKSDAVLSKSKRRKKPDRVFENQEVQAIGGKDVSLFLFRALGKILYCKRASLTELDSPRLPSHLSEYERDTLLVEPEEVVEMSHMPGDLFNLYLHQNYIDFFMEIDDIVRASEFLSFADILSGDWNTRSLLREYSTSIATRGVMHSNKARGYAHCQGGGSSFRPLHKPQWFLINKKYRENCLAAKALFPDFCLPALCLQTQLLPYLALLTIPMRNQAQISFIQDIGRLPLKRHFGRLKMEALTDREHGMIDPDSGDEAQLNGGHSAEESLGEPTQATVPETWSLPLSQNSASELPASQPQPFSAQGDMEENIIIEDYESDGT
# UniProt Q3YEC7: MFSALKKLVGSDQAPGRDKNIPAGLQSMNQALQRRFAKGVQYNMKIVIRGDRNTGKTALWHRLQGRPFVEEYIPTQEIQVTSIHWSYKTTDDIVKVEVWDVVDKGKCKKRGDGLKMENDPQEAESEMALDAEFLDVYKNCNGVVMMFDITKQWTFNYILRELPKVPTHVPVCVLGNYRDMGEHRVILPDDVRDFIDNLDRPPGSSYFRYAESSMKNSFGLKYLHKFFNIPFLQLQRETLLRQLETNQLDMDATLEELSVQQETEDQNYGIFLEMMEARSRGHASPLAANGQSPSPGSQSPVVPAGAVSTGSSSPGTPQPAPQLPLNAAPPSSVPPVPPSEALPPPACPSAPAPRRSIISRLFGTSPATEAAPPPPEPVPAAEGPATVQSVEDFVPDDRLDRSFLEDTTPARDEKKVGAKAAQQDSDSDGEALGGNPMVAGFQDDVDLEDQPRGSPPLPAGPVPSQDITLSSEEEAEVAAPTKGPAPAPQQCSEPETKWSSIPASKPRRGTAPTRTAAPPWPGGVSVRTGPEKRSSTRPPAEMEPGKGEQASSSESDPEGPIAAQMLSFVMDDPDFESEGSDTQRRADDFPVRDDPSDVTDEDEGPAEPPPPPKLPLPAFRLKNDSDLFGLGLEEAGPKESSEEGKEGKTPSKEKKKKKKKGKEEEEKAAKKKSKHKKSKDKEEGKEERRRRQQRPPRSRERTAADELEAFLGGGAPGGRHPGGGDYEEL
# UniProt Q8WUD1: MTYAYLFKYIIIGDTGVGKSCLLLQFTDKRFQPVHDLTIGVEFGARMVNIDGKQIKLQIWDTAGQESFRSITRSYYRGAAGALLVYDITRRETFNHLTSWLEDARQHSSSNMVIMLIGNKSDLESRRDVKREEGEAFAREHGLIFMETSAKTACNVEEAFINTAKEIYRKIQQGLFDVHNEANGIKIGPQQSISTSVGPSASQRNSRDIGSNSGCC
# UniProt P10114: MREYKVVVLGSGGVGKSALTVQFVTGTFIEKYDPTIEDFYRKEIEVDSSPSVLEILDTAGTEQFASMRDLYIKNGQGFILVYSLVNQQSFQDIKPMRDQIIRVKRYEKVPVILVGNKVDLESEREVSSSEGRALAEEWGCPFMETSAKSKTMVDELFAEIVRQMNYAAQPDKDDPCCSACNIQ
# UniProt A4D1S5: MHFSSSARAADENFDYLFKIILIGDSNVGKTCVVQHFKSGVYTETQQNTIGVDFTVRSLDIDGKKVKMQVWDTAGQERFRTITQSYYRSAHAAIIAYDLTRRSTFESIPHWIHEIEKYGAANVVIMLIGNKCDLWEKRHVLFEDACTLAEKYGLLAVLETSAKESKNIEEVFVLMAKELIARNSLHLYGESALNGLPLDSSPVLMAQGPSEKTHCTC
# UniProt Q9NP72: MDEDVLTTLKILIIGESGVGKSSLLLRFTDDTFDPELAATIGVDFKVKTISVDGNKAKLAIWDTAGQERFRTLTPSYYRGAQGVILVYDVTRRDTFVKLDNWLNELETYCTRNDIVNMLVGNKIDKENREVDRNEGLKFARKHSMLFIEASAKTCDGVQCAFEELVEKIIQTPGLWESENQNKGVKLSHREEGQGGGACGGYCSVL
# UniProt Q86X10: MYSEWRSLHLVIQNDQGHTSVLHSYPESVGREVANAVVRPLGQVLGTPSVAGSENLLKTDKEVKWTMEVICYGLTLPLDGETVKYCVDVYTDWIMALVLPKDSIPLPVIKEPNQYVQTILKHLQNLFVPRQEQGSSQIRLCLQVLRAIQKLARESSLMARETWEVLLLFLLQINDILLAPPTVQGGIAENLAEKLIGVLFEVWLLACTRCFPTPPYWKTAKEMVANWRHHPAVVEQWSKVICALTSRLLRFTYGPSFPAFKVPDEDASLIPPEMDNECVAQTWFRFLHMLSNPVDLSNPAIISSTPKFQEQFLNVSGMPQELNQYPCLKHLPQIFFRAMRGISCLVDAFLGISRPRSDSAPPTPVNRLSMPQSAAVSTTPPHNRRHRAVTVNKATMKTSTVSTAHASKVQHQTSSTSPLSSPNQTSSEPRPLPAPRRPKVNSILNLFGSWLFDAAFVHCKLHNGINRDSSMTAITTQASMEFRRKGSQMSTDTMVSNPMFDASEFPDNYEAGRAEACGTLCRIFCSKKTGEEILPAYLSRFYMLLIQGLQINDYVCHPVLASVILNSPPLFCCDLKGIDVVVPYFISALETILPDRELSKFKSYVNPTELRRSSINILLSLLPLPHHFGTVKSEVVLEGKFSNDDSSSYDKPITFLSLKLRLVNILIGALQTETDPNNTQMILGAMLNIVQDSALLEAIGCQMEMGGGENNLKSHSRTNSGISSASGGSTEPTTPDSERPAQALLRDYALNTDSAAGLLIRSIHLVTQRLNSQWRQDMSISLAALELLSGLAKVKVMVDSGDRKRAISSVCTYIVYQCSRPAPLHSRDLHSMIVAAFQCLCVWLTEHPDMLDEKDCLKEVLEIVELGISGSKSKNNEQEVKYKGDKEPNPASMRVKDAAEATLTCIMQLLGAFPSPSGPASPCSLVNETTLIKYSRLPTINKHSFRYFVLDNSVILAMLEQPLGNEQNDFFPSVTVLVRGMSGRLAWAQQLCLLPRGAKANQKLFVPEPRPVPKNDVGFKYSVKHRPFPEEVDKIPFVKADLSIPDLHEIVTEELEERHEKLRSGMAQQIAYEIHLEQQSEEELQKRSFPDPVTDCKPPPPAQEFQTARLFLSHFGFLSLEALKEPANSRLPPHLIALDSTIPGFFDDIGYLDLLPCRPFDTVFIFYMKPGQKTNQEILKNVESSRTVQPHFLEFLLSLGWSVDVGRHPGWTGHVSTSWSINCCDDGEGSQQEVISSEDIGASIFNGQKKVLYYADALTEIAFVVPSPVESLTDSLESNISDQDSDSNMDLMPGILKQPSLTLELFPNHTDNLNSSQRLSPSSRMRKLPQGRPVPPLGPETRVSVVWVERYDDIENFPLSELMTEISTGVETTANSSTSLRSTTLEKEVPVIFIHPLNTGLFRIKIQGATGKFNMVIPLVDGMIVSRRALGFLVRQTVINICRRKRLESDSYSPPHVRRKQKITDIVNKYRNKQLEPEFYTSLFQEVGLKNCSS
# UniProt O14966: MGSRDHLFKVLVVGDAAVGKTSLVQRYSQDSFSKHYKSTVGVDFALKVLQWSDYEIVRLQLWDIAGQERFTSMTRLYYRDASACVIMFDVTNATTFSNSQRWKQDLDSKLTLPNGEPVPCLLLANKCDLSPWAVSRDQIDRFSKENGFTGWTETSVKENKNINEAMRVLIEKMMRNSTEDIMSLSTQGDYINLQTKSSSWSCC
# UniProt Q8WWW0: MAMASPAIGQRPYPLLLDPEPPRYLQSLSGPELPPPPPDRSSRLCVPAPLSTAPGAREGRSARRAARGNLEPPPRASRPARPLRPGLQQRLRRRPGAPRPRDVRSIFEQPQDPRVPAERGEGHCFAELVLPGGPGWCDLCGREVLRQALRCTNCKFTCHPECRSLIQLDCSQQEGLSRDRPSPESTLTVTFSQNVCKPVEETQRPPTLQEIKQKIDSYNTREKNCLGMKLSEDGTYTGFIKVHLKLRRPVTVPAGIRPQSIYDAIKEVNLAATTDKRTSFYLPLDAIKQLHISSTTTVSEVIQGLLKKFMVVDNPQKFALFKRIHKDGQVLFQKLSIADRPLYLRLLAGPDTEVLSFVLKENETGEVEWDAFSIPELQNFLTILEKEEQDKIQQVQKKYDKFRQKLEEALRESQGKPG
# Some of the results follow.
# Legend:
# Assay in all cases: log2 fold change, soluble protein after heating vs DMSO (PISA); higher = thermal stabilisation; K562 cells, 10 uM, 30 min; active = over 0.2 and 3.5 SD of the protein, either way, in both replicates (recomputed)
# [1] = compound: COC1=CC=C(C=C1)CN2C=CC3=C2C=C(C=C3)C(=O)NO
# How it was run: (§1)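 Values are thermal stability changes relative to control samples and are taken from duplicates. They are stated as log2 fold changes. Before quantification by TMTpro 16plex LC-MS/MS with equalised channel sums, K562 cells at 2×10^6 cells/mL were treated with 10 μM compound for 30 min, heated in aliquots for 3 min across 48°C-58°C, pooled, extracted in PBS with 0.5% NP-40 at 4°C, and centrifuged at 21,000xg for 90 min to give the soluble supernatant.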
# filanesib = compound: CON(C)C(=O)N1N=C(c2cc(F)ccc2F)S[C@@]1(CCCN)c1ccccc1 [filanesib]
# How it was run: as §1
# zotarolimus = compound: CO[C@H]1C[C@@H]2CC[C@@H](C)[C@@](O)(O2)C(=O)C(=O)N2CCCC[C@H]2C(=O)O[C@H]([C@H](C)C[C@@H]2CC[C@H](n3cnnn3)[C@H](OC)C2)CC(=O)[C@H](C)/C=C(\C)[C@@H](O)[C@@H](OC)C(=O)[C@H](C)C[C@H](C)/C=C/C=C/C=C/1C [zotarolimus]
# How it was run: as §1
# idasanutlin = compound: COc1cc(C(=O)O)ccc1NC(=O)[C@@H]1N[C@@H](CC(C)(C)C)[C@](C#N)(c2ccc(Cl)cc2F)[C@H]1c1cccc(Cl)c1F [idasanutlin]
# How it was run: as §1
# alisertib = compound: COc1cc(Nc2ncc3c(n2)-c2ccc(Cl)cc2C(c2c(F)cccc2OC)=NC3)ccc1C(=O)O [alisertib]
# How it was run: as §1
# [2] = compound: COc1cc2nc(-c3cc(F)ccc3O)nc(N[C@@H]3CNC[C@H]3C(C)(C)O)c2cc1OC
# How it was run: as §1
# gefitinib = compound: COc1cc2ncnc(Nc3ccc(F)c(Cl)c3)c2cc1OCCCN1CCOCC1 [gefitinib]
# How it was run: as §1
# [3] = compound: COc1cccc2cc(-c3nc([C@H]4CC[C@H](C(=O)O)CC4)n4ncnc(N)c34)[nH]c12
# How it was run: as §1
# lapatinib = compound: CS(=O)(=O)CCNCc1ccc(-c2ccc3ncnc(Nc4ccc(OCc5cccc(F)c5)c(Cl)c4)c3c2)o1 [lapatinib]
# How it was run: as §1
# pictilisib = compound: CS(=O)(=O)N1CCN(Cc2cc3nc(-c4cccc5[nH]ncc45)nc(N4CCOCC4)c3s2)CC1 [pictilisib]
# How it was run: as §1
Target,log2 fold change [1],log2 fold change (filanesib),log2 fold change (zotarolimus),log2 fold change (idasanutlin),log2 fold change (alisertib),log2 fold change [2],log2 fold change (gefitinib),log2 fold change [3],log2 fold change (lapatinib),log2 fold change (pictilisib)
RABEPK (UniProt Q7Z6M1),inactive: -0.015,inactive: -0.027,inactive: 0.005,inactive: -0.044,inactive: 0.01,inactive: 0.016,inactive: 0.037,inactive: 0.029,inactive: -0.001,inactive: 0.011
RAB1B (UniProt Q9H0U4),inactive: 0.062,inactive: -0.084,inactive: -0.067,inactive: -0.003,inactive: 0.028,inactive: 0.06,inactive: 0.035,inactive: 0.098,inactive: -0.108,inactive: -0.003
RACK1 (UniProt P63244),inactive: 0.023,inactive: -0.116,inactive: -0.017,inactive: -0.056,inactive: -0.052,inactive: 0.063,inactive: -0.018,inactive: -0.104,inactive: 0.012,inactive: -0.081
RASA1 (UniProt P20936),inactive: -0.177,inactive: -0.047,inactive: 0.112,inactive: -0.44,inactive: -0.108,inactive: 0.109,inactive: 0.002,inactive: 0.034,inactive: -0.091,
RAP1B (UniProt F5GZG1),inactive: -0.064,inactive: -0.096,inactive: -0.013,inactive: -0.026,inactive: -0.114,inactive: 0.29,inactive: 0.007,inactive: 0.134,inactive: -0.126,
RAD17 (UniProt O75943),inactive: -0.037,,,,,,,,,
RABL6 (UniProt Q3YEC7),inactive: -0.048,inactive: -0.01,inactive: -0.024,inactive: 0.03,inactive: -0.043,inactive: 0,inactive: 0.032,inactive: 0.009,inactive: -0.019,inactive: 0.12
RBFOX2 isoform 8 (UniProt O43251),inactive: -0.223,inactive: 0.208,inactive: 0.008,inactive: -0.122,inactive: -0.118,inactive: -0.037,inactive: -0.238,inactive: -0.045,inactive: 0.237,inactive: 0.024
RABGAP1L isoform 5 (UniProt Q5R372),inactive: 0.117,inactive: 0.108,inactive: -0.008,inactive: 0.05,inactive: -0.071,inactive: 0.065,inactive: -0.097,inactive: 0.007,inactive: -0.027,
RAB2B (UniProt Q8WUD1),inactive: 0.107,inactive: -0.094,inactive: 0.005,inactive: -0.021,inactive: -0.006,inactive: -0.049,inactive: 0.004,inactive: 0.024,inactive: 0.026,inactive: -0.086
RABGAP1L isoform 3 (UniProt Q5R372),inactive: -0.108,inactive: -0.026,inactive: -0.006,inactive: -0.05,inactive: -0.008,inactive: -0.025,inactive: 0.035,inactive: 0.033,inactive: 0.012,inactive: -0.066
RAP2A (UniProt P10114),inactive: -0.064,inactive: 0.007,inactive: -0.052,inactive: 0.007,inactive: 0.046,inactive: 0.041,inactive: 0.028,inactive: 0.047,inactive: -0.014,inactive: -0.033
RBM10 isoform 5 (UniProt P98175),inactive: -0.104,inactive: 0.21,inactive: -0.002,inactive: 0.16,inactive: 0.263,inactive: 0.048,inactive: 0.034,inactive: 0.004,inactive: 0.042,inactive: 0.126
RAD51 (UniProt Q06609),inactive: -0.057,inactive: 0.003,inactive: -0.034,inactive: -0.072,inactive: 0.041,inactive: -0.022,inactive: -0.07,inactive: 0.012,inactive: -0.024,inactive: -0.02
RAB19 isoform 2 (UniProt A4D1S5),inactive: -0.307,inactive: -0.008,,,,,,,,
RAD1 (UniProt O60671),inactive: 0.018,inactive: -0.055,inactive: -0.012,inactive: -0.028,inactive: -0.054,inactive: -0.003,inactive: 0.04,inactive: 0.006,inactive: 0.026,inactive: -0.083

Target,log2 fold change [1],log2 fold change (filanesib),log2 fold change (zotarolimus),log2 fold change (idasanutlin),log2 fold change (alisertib),log2 fold change [2],log2 fold change (gefitinib),log2 fold change [3],log2 fold change (lapatinib),log2 fold change (pictilisib)
RALGAPA1 isoform 6 (UniProt Q6GYQ0),inactive: 0.099,inactive: 0.103,inactive: -0.01,inactive: -0.188,inactive: 0.019,inactive: 0.252,inactive: -0.05,inactive: 0,inactive: 0.039,
RAB18 (UniProt Q9NP72),inactive: -0.003,inactive: -0.016,inactive: -0.017,inactive: -0.016,inactive: -0.001,inactive: -0.014,inactive: 0.018,inactive: 0.029,inactive: 0.002,inactive: -0.084
RAC2 (UniProt P15153),inactive: 0.048,inactive: 0.015,inactive: -0.029,inactive: -0.006,inactive: -0.109,inactive: 0.097,inactive: -0.002,inactive: 0.004,inactive: -0.011,inactive: 0.009
RAB35 (UniProt Q15286),inactive: -0.041,inactive: -0.037,inactive: -0.042,inactive: -0.015,inactive: -0.072,inactive: -0.034,inactive: 0.044,inactive: 0.063,inactive: 0.024,inactive: 0.134
RANBP10 (UniProt Q6VN20),inactive: 0.051,inactive: -0.04,inactive: 0.032,inactive: 0.022,inactive: -0.019,inactive: 0,inactive: 0.005,inactive: 0.031,inactive: 0,inactive: 0.024
RAC1 (UniProt P63000),active: 0.474,inactive: -0.118,inactive: 0.044,inactive: 0.003,inactive: -0.066,inactive: 0.02,inactive: 0.039,inactive: 0.006,inactive: 0.004,inactive: -0.094
RANBP2 (UniProt P49792),active: 0.334,inactive: -0.048,inactive: 0.029,inactive: -0.005,inactive: 0.079,inactive: 0.044,inactive: 0.05,inactive: -0.097,inactive: -0.07,inactive: -0.002
RALGAPB (UniProt Q86X10),inactive: 0.037,inactive: -0.075,inactive: 0.078,inactive: 0.057,inactive: 0.016,inactive: 0.08,inactive: -0.023,inactive: -0.184,inactive: 0.052,
RAB29 (UniProt O14966),inactive: -0.02,inactive: -0.018,inactive: 0.048,inactive: -0.096,inactive: 0.043,inactive: 0.08,inactive: 0.028,inactive: 0.054,inactive: -0.07,inactive: -0.053
RBM22 (UniProt Q9NW64),inactive: -0.105,inactive: 0.096,inactive: 0,inactive: 0.056,inactive: -0.002,inactive: 0.021,inactive: -0.058,inactive: 0.083,inactive: 0.036,inactive: -0.031
RAD51C (UniProt O43502),inactive: 0.009,inactive: -0.004,inactive: 0.014,inactive: -0.04,inactive: -0.003,inactive: 0.046,inactive: -0.009,inactive: 0.029,inactive: 0.033,inactive: 0.009
RABL3 (UniProt Q5HYI8),inactive: -0.056,inactive: -0.069,inactive: -0.005,inactive: -0.043,inactive: -0.021,inactive: -0.013,inactive: -0.007,inactive: 0.033,inactive: 0.009,inactive: 0.049
RAB5B (UniProt P61020),inactive: 0.044,inactive: -0.025,inactive: 0.035,inactive: -0.038,inactive: -0.093,inactive: -0.035,inactive: -0.001,inactive: 0.061,inactive: 0.026,inactive: -0.144
RBBP6 (UniProt Q7Z6E9),inactive: 0.101,active: 0.468,inactive: -0.052,inactive: 0.089,inactive: 0.044,inactive: -0.099,inactive: -0.02,inactive: 0.146,inactive: 0.101,inactive: 0.016
RAP1A (UniProt P62834),inactive: -0.053,inactive: 0.006,inactive: -0.027,inactive: -0.007,inactive: -0.027,inactive: 0.008,inactive: 0.017,inactive: 0.005,inactive: -0.006,inactive: 0.059
RASSF5 (UniProt Q8WWW0),inactive: -0.085,inactive: 0.115,inactive: 0.112,inactive: 0.019,inactive: -0.103,inactive: 0.133,inactive: -0.054,inactive: 0.013,inactive: -0.091,inactive: 0.003

# Complete entries from above. Order of values: log2 fold change [1] | log2 fold change (filanesib) | log2 fold change (zotarolimus) | log2 fold change (idasanutlin) | log2 fold change (alisertib) | log2 fold change [2] | log2 fold change (gefitinib) | log2 fold change [3] | log2 fold change (lapatinib) | log2 fold change (pictilisib)
# RAB5B (UniProt P61020) is listed with inactive: 0.044 | inactive: -0.025 | inactive: 0.035 | inactive: -0.038 | inactive: -0.093 | inactive: -0.035 | inactive: -0.001 | inactive: 0.061 | inactive: 0.026 | inactive: -0.144
# RAB18 (UniProt Q9NP72) is listed with inactive: -0.003 | inactive: -0.016 | inactive: -0.017 | inactive: -0.016 | inactive: -0.001 | inactive: -0.014 | inactive: 0.018 | inactive: 0.029 | inactive: 0.002 | inactive: -0.084
